# Reference: the supplement of paper PMC8728848
# The other results are listed elsewhere or left out.
# B1: Epa21 (Candida glabrata) (protein)
# chain: MGSSHHHHHHSSGLVPRGSHMASTPNIESHPQGCSPVDTSGIKPGLKMDLYRFPITPPGTGCWSWDWLTVTPDFPRSGYWKWPKIAEVDGVVGPLHLDSGHPTCDPLTSVLPHGFNYLQSITTTNFTMVLHGYFVPKQSGKYTFEFKADDALLLNLGAGNAFSCCDYNNSQYNQGEYLAYAIWSKNNQTATLYLEKGIYYPIRVFYHNRCCGAYMDVVYYFNDSPIPNRDFSGLLFSIPDSDSCDANI
# Assays:
# Experiment in all cases: glycan array binding signal (z-score within array); higher = stronger binding
# Conditions in all cases: glycan notation: IUPAC condensed, linker removed
# [1] = molecular target: Gal(b1-4)GlcNAc(b1-3)Gal(b1-4)GlcNAc(b1-3)[Gal(b1-4)GlcNAc(b1-3)Gal(b1-4)GlcNAc(b1-6)]GalNAc
# Summary of the method: (§1)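 The binding signal is a Z-score computed within each array and averaged over linkers. Arrays of the same protein sequence at different concentrations or buffers were also averaged together. Data originate from 3228 arrays in the Consortium for Functional Glycomics database, kept only where the protein sequence was available.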
# [2] = molecular target: Gal(b1-4)GlcNAc(b1-3)Gal(b1-4)GlcNAc(b1-6)[Gal(b1-3)]GalNAc
# Summary of the method: as §1
# [3] = molecular target: Gal(b1-4)GlcNAc(b1-3)Gal(b1-4)[Fuc(a1-3)]GlcNAc(b1-3)Gal(b1-4)[Fuc(a1-3)]GlcNAc
# Summary of the method: as §1
# [4] = molecular target: Gal(b1-4)GlcNAc(b1-3)GalNAc
# Summary of the method: as §1
# [5] = molecular target: Gal(b1-4)GlcNAc(b1-3)[Fuc(a1-3)GlcNAc(b1-6)]Gal(b1-4)Glc
# Summary of the method: as §1
# [6] = molecular target: Gal(b1-4)GlcNAc(b1-3)[Gal(b1-4)GlcNAc(b1-6)]Gal(b1-4)GlcNAc
# Summary of the method: as §1
# [7] = molecular target: Gal(b1-4)GlcNAc(b1-3)[GlcNAc(b1-6)]Gal(b1-4)GlcNAc
# Summary of the method: as §1
# [8] = molecular target: Gal(b1-4)GlcNAc(b1-6)Gal(b1-4)GlcNAc
# Summary of the method: as §1
# [9] = molecular target: Gal(b1-4)GlcNAc(b1-6)GalNAc
# Summary of the method: as §1
# [10] = molecular target: Gal(b1-4)GlcNAc(b1-6)[Gal(b1-3)]GalNAc
# Summary of the method: as §1
# [11] = molecular target: Gal(b1-4)GlcNAc(b1-6)[Gal(b1-4)GlcNAc(b1-3)]GalNAc
# Summary of the method: as §1
# [12] = molecular target: Gal(b1-4)GlcNAc6P
# Summary of the method: as §1
# [13] = molecular target: Gal(b1-6)Gal
# Summary of the method: as §1
# [14] = molecular target: Gal3S(b1-3)GalNAc
# Summary of the method: as §1
# [15] = molecular target: Gal3S(b1-3)GlcNAc
# Summary of the method: as §1
# [16] = molecular target: Gal3S(b1-3)[Fuc(a1-4)]GlcNAc
# Summary of the method: as §1
# [17] = molecular target: Gal3S(b1-4)Glc
# Summary of the method: as §1
# [18] = molecular target: Gal3S(b1-4)Glc6S
# Summary of the method: as §1
# [19] = molecular target: Gal3S(b1-4)GlcNAc
# Summary of the method: as §1
# [20] = molecular target: Gal3S(b1-4)[Fuc(a1-3)]Glc6S
# Summary of the method: as §1
# [21] = molecular target: Gal3S(b1-4)[Fuc(a1-3)]GlcNAc
# Summary of the method: as §1
# [22] = molecular target: Gal3S(b1-4)[Fuc(a1-3)]GlcNAc6S
# Summary of the method: as §1
# [23] = molecular target: Gal3S4S(b1-4)GlcNAc
# Summary of the method: as §1
# [24] = molecular target: Gal3S6S(b1-4)GlcNAc
# Summary of the method: as §1
# [25] = molecular target: Gal3S6S(b1-4)GlcNAc6S
# Summary of the method: as §1
# [26] = molecular target: Gal4S(b1-4)GlcNAc
# Summary of the method: as §1
# [27] = molecular target: Gal4S6S(b1-4)GlcNAc
# Summary of the method: as §1
# [28] = molecular target: Gal6P(b1-4)GlcNAc
# Summary of the method: as §1
# [29] = molecular target: Gal6S(b1-3)GlcNAc
# Summary of the method: as §1
# [30] = molecular target: Gal6S(b1-3)GlcNAc6S
# Summary of the method: as §1
# [31] = molecular target: Gal6S(b1-4)Glc
# Summary of the method: as §1
# [32] = molecular target: Gal6S(b1-4)Glc6S
# Summary of the method: as §1
# [33] = molecular target: Gal6S(b1-4)GlcNAc
# Summary of the method: as §1
# [34] = molecular target: Gal6S(b1-4)GlcNAc6S
# Summary of the method: as §1
# [35] = molecular target: GalNAc(a1-3)Gal
# Summary of the method: as §1
# [36] = molecular target: GalNAc(a1-3)GalNAc
# Summary of the method: as §1
# [37] = molecular target: GalNAc(a1-3)GalNAc(b1-3)Gal(a1-4)Gal(b1-4)Glc
# Summary of the method: as §1
binder,measurement,setting,value
B1,glycan array binding signal (z-score),[1],1.89
same,glycan array binding signal (z-score),[2],2.73
same,glycan array binding signal (z-score),[3],-0.493
same,glycan array binding signal (z-score),[4],-0.525
same,glycan array binding signal (z-score),[5],-0.542
same,glycan array binding signal (z-score),[6],-0.161
same,glycan array binding signal (z-score),[7],1.79
same,glycan array binding signal (z-score),[8],0.03
same,glycan array binding signal (z-score),[9],-0.047
same,glycan array binding signal (z-score),[10],0.616
same,glycan array binding signal (z-score),[11],-0.185
same,glycan array binding signal (z-score),[12],0.364
same,glycan array binding signal (z-score),[13],-0.1
same,glycan array binding signal (z-score),[14],-0.468
same,glycan array binding signal (z-score),[15],-0.397
same,glycan array binding signal (z-score),[16],1.21
same,glycan array binding signal (z-score),[17],-0.231
same,glycan array binding signal (z-score),[18],0.033
same,glycan array binding signal (z-score),[19],0.019
same,glycan array binding signal (z-score),[20],0.754
same,glycan array binding signal (z-score),[21],-0.198
same,glycan array binding signal (z-score),[22],1.32
same,glycan array binding signal (z-score),[23],-0.174
same,glycan array binding signal (z-score),[24],0.658
same,glycan array binding signal (z-score),[25],2.16
same,glycan array binding signal (z-score),[26],-0.79
same,glycan array binding signal (z-score),[27],-0.52
same,glycan array binding signal (z-score),[28],-0.473
same,glycan array binding signal (z-score),[29],0.687
same,glycan array binding signal (z-score),[30],1.07
same,glycan array binding signal (z-score),[31],0.513
same,glycan array binding signal (z-score),[32],2.89
same,glycan array binding signal (z-score),[33],0.193
same,glycan array binding signal (z-score),[34],3.19
same,glycan array binding signal (z-score),[35],-0.735
same,glycan array binding signal (z-score),[36],-0.222
same,glycan array binding signal (z-score),[37],-0.632

# 2 entries from above in a different format:
binder	measurement	setting	value
B1	glycan array binding signal (z-score)	[22]	1.32
same	glycan array binding signal (z-score)	[23]	-0.174
